Earlier results, collected in US9549912B2, “Methods for treating atrial fibrillation” (Armetheon, Inc., priority 2009, dated 2017).

By UniProt entry, the sequences of proteins in these tests, tags left out.
UniProt P08183, whole entry: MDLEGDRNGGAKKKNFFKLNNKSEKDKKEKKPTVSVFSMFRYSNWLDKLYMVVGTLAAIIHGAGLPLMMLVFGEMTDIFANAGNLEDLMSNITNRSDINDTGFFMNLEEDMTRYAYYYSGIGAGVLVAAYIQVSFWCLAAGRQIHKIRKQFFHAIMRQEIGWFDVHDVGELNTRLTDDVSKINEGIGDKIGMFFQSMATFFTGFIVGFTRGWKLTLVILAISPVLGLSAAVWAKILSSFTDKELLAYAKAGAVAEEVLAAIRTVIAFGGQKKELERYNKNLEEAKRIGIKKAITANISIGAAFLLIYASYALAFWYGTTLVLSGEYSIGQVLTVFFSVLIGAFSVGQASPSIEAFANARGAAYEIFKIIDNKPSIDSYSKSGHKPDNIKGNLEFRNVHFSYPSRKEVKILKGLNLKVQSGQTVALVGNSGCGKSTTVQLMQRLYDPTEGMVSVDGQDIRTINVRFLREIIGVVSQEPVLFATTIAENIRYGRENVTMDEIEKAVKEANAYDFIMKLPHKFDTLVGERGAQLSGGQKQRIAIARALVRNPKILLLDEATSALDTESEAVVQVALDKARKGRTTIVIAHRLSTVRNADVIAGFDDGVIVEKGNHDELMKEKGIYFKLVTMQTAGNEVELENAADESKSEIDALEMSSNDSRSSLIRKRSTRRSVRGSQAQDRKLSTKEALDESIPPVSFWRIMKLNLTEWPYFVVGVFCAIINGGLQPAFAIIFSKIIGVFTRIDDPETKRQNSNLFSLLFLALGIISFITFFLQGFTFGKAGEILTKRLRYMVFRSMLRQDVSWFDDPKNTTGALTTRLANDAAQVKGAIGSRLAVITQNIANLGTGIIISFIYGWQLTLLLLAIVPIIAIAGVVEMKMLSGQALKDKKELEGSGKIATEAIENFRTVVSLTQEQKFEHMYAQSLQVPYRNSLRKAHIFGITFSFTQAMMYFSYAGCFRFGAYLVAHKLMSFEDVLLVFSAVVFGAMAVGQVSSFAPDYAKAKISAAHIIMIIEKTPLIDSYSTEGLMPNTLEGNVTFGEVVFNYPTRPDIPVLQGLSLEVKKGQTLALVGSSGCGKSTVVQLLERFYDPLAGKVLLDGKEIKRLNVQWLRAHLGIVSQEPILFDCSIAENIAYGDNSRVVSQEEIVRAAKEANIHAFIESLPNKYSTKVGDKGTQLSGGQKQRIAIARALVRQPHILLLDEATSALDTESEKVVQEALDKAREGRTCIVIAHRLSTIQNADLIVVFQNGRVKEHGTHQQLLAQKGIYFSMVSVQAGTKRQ

Molecular target: P-glycoprotein (P-gp) (Homo sapiens, UniProt P08183)
Conditions: cited from earlier work

## CCCCc1oc2ccccc2c1C(=O)c1cc(I)c(OCCN(CC)CC)c(I)c1 [amiodarone]
  P-gp inhibition: inhibitor
